{
  "sequences": {"note": "Sequences of proteins named here, by UniProt entry; tags and fusion partners are left off. A change or cut given only in a name is not applied to a line headed by its entry.", "UniProt P28562": "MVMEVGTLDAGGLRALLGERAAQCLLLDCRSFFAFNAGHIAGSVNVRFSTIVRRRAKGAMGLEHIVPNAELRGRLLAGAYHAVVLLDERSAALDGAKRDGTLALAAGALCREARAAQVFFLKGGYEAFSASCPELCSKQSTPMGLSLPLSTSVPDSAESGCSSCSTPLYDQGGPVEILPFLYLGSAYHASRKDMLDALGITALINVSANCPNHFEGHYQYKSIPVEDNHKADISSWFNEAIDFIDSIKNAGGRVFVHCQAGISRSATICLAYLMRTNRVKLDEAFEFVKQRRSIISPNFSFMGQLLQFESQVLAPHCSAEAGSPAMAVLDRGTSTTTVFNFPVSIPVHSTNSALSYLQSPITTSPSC"},
  "source": "PubChem BioAssay AID374",
  "about": "(University of Pittsburgh Molecular Library Screening Center, 2006)",
  "note": "About 100 (0.15%) of roughly 65,000 compounds were called active. The shares of active, inactive and inconclusive entries below differ from those in the screen.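 How the source made its calls: active means inhibition above about 50% (limit read from the data); inconclusive means inhibition over screen mean plus 3 SD, below that limit; inactive means the rest.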",
  "data": [
    {"molecular_target": "Dual specificity protein phosphatase 1 (Homo sapiens) (UniProt P28562)", "assay": "blockers of human DUSP1 activity – biochemical, in vitro, primary screen (AID 374);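 further: 0% = DMSO max control wells and 100% = wells with enzyme stopped by NaOH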", "conditions": "recombinant MKP-1, OMFP hydrolysis fluorescence; hits give high values;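 compounds tested at a single concentration somewhere between 10 and 100 µM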", "values": [
      {"compound": "CCn1nc(-c2ccccc2)nc2c(=O)n(C)c(=O)nc1-2", "inhibition": "active: 97.8%"},
      {"compound": "Cc1nc2cc(C(F)(F)F)ccc2n1C1CCN(Cc2nnnn2Cc2ccc3c(c2)OCO3)CC1", "inhibition": "inconclusive: 47%"},
      {"compound": "COCCCn1c(N)c(C(=O)NCCC(C)C)c2nc3ccccc3nc21", "inhibition": "active: 54.9%"},
      {"compound": "Cn1ncnc2c(=O)n(C)c(=O)nc1-2", "inhibition": "active: 101%"},
      {"compound": "C=CCOc1ccc(CC2C(=O)N(C)C(=O)N(C)C2=O)cc1", "inhibition": "inconclusive: 45.7%"}
    ]}
  ]
}
